Among the data in publication PMC5240590 are binding values, retold here.

In this test the target is T1, recombinant human α-fetoprotein (R-AFP) (human), P02771.
T1 chain: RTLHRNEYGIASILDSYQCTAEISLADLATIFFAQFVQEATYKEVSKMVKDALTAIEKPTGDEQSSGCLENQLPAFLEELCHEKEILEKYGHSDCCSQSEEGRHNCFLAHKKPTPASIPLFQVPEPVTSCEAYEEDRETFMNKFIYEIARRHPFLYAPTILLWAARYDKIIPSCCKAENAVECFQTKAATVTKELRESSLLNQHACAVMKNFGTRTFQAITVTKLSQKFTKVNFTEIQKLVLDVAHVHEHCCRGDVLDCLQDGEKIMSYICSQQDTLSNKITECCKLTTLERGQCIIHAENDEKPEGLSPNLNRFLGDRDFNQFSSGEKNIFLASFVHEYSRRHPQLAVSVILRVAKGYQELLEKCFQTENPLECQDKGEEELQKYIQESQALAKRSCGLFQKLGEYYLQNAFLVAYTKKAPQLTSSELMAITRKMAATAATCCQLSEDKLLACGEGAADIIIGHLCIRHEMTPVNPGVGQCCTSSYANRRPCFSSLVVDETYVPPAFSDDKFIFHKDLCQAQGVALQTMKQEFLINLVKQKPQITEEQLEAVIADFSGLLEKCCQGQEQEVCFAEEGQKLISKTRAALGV
Description: SEC; Superdex 200 gel filtration of Ni-purified R-AFP, HBS buffer (10 mM Hepes pH 7.2, 150 mM NaCl), 1 ml/min, detection at 280 nm; elution at 15.0 ml, position of 65-70 kDa; both purified. The following applies: remark: other sources report otherwise.

These are yes or no findings as the source states them, for the method shown.

B1: recombinant human α-fetoprotein (R-AFP), P02771 19-609 (protein)
chain: RTLHRNEYGIASILDSYQCTAEISLADLATIFFAQFVQEATYKEVSKMVKDALTAIEKPTGDEQSSGCLENQLPAFLEELCHEKEILEKYGHSDCCSQSEEGRHNCFLAHKKPTPASIPLFQVPEPVTSCEAYEEDRETFMNKFIYEIARRHPFLYAPTILLWAARYDKIIPSCCKAENAVECFQTKAATVTKELRESSLLNQHACAVMKNFGTRTFQAITVTKLSQKFTKVNFTEIQKLVLDVAHVHEHCCRGDVLDCLQDGEKIMSYICSQQDTLSNKITECCKLTTLERGQCIIHAENDEKPEGLSPNLNRFLGDRDFNQFSSGEKNIFLASFVHEYSRRHPQLAVSVILRVAKGYQELLEKCFQTENPLECQDKGEEELQKYIQESQALAKRSCGLFQKLGEYYLQNAFLVAYTKKAPQLTSSELMAITRKMAATAATCCQLSEDKLLACGEGAADIIIGHLCIRHEMTPVNPGVGQCCTSSYANRRPCFSSLVVDETYVPPAFSDDKFIFHKDLCQAQGVALQTMKQEFLINLVKQKPQITEEQLEAVIADFSGLLEKCCQGQEQEVCFAEEGQKLISKTRAALGV
Turning to B1, the binding result is recorded as “no binding”.
